Data: the supplement of paper PMC10735217
Counter-ions that a name gives are not always drawn. This is one part of the list. Repeats in this data set agree poorly, so a single value says little.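 Human kidney-derived cells stably carry a construct in which eight TEAD-binding elements drive luciferase, measured by luminescence in a drug-repurposing library screen. A hit is any compound whose signal exceeds the plate mean by more than five robust Z scores.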

Test system: HEK293A TEAD-LUC reporter
Assay: TEAD-luciferase reporter activity (YAP activation), robust Z score vs plate; higher = stronger YAP/TEAD activation
Details: 24 h

Row | SMILES | TEAD-luciferase reporter activity (compound concentration: 200 nM) | TEAD-luciferase reporter activity (compound concentration: 2 uM) | TEAD-luciferase reporter activity (compound concentration: 10 uM)
1 | [O]=[Bi][Cl] | inactive: -0.354 | inactive: 3.16 | inactive: -1.31
2 | O=C(NS(=O)(=O)c1ccc(Br)s1)c1ccc(Cl)cc1Cl [Tasisulam sodium] | inactive: -0.811 | inactive: 1.89 | active: 12.2
3 | C#C[C@@]1(O)[C@@H](CO)O[C@@H](n2ccc(N)nc2=O)[C@@H]1O [ethynylcytidine] | inactive: -1.29 | inactive: -2.56 | inactive: -1.98
4 | CC(C)(N)c1ccc(C(F)(F)C(F)(F)c2ccccc2)cc1 | inactive: -1.29 | inactive: 0.0955 | inactive: 1.54
5 | NC(=O)c1cc[n+](CC2=C(C(=O)[O-])N3C(=O)[C@@H](NC(=O)Cc4cccs4)[C@H]3SC2)cc1 | inactive: -1.95 | inactive: -1.27 | inactive: -1.34
6 | CN(CCCCCCN(C)C(=O)Oc1ccc[n+](C)c1)C(=O)Oc1ccc[n+](C)c1 | inactive: 1.28 | inactive: -1.63 | inactive: 1.07
7 | Cc1nc(-c2cn3c(n2)-c2ccc(-c4cnn(C(C)(C)C(N)=O)c4)cc2OCC3)n(C(C)C)n1 [Taselisib] | inactive: 1 | inactive: -1.87 | inactive: -0.238
8 | CC(C)C(=O)Oc1ccc(CO)cc1[C@H](CCN(C(C)C)C(C)C)c1ccccc1 [fesoterodine fumarate] | inactive: -0.818 | inactive: -1.22 | inactive: -0.255
9 | COc1ccc(S(=O)(=O)Nc2cc(Cl)cc(Cl)c2OC)cc1N1CCNCC1 | inactive: 3.78 | inactive: -1.29 | inactive: -0.368
10 | COc1ccc2c(c1)nc(S(=O)Cc1ncc(C)c(OC)c1C)n2S(=O)(=O)c1ccc(OCC(=O)O)cc1 (stereo not given) | inactive: -0.495 | inactive: -0.381 | inactive: -0.182
11 | CCOc1nc(N)c2ncn(C3CCCC3)c2n1 | inactive: 0.869 | inactive: -0.679 | inactive: 0.483
12 | CCc1cccc2c1S(=O)(=O)c1ccccc1O2 | inactive: -0.446 | inactive: -0.355 | inactive: 0.684
13 | CC[C@@]12C=C(C(=O)OC)n3c4c(c5ccccc53)CCN(CCC1)[C@H]42 [cis-Apovincamine] | inactive: -1.81 | inactive: 1.27 | active: 8.97
14 | O=C(O)c1ccccc1Nc1cc(Cl)ccc1C(=O)O [lobenzarit] | inactive: -1.48 | inactive: -0.55 | inactive: 0.546
15 | CC(=O)Nc1cccc2c(=O)n(C)c3ccccc3c(=O)c12 | inactive: 3.71 | inactive: -1.24 | inactive: -0.73

Single entries from above.
TEAD-luciferase reporter activity (compound concentration: 200 nM), CCc1cccc2c1S(=O)(=O)c1ccccc1O2 reads inactive: -0.446
TEAD-luciferase reporter activity (compound concentration: 10 uM), CC(=O)Nc1cccc2c(=O)n(C)c3ccccc3c(=O)c12 reads inactive: -0.73
